Paper doi:10.1101/835280
These are yes or no findings as the source states them, for the method shown.

Target: N-terminal domain of KaiA (residues 1-135) (Synechococcus elongatus PCC 7942) (UniProt Q79PF6)
Assay: SEC

- binding: no binding
B1: N-terminal domain of KaiA (residues 1-135) (domain or fragment, UniProt Q79PF6 1-135)
chain: MLSQIAICIWVESTAILQDCQRALSADRYQLQVCESGEMLLEYAQTHRDQIDCLILVAANPSFRAVVQQLCFEGVVVPAIVVGDRDSEDPDEPAKEQLYHSAELHLGIHQLEQLPYQVDAALAEFLRLAPVETMA
